In patent US9987294B2, “Mitochondria-targeted anti-tumor agents” (University of Massachusetts, priority 2007, dated 2018):
For some of these results: Part of at least one peptide drawing is inferred or uncertain, most often the ends. For some of these results: For at least one compound, name, drawing or mass did not settle the structure.

Sequences of proteins named here, by UniProt entry; tags and fusion partners are left off. Residues count along the entry.
UniProt P30405, 30-207: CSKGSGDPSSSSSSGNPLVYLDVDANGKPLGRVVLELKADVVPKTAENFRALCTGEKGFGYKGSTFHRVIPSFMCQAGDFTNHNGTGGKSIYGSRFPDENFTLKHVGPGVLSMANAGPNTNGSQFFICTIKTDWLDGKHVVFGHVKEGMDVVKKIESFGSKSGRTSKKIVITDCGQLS

How the values were obtained:
[1] = test system: purified HeLa cell mitochondria; assay: Mitochondrial membrane potential of TMRM-loaded isolated mitochondria; type: biochemical, human; conditions: TMRM-loaded HeLa cell (tumor) mitochondria
Protocol: (§1) Raji cells were treated with Shepherdin or control scrambled peptidomimetic (100 μM) or 17-AAG (5 μM), loaded with the mitochondrial membrane potential-sensitive fluorescent dye JC-1, and analyzed for changes in green/red fluorescence ratio by flow cytometry. For experiments in a cell-free system, purified mitochondria isolated from primary normal cells, various tumor cells types, or normal mouse organs were suspended in SB buffer. […] For these experiments, TMRM-loaded mitochondria in SB buffer were allowed to reach stable fluorescence, which was set as fully polarized state (maximum membrane potential). The fluorescence intensity after treatment with 2 mM CaCl2 was set as minimum membrane potential (fully depolarized state). Changes in fluorescence intensity after each treatment were plotted as a ratio between maximum and minimum membrane potential.

[2] = test system: normal mouse brain mitochondria; assay: as above; type: biochemical
Protocol: as §1

HeLa cell mitochondria = assay: Cytochrome c and Smac release from isolated tumor mitochondria (Western blotting); type: biochemical, human
Protocol: (§2) Tumor cell types were treated with controls or the various Hsp90 antagonists, and cytosolic extracts were harvested at increasing time intervals between 5-30 minutes and analyzed by Western blotting. For experiments in a cell-free system, purified mitochondria (20 μg) were suspended in 500 μl of SB buffer (0.2 M sucrose, 10 mM Tris-MOPS, pH 7.4, 5 mM succinate, 1 mM sodium phosphate, 10 μM EGTA-Tris, and 2 μM rotenone). Samples were treated with controls or the various Hsp90 antagonists for 20 minutes at 22° C. At the end of each incubation reaction, mitochondria and supernatants were separated by centrifugation at 6,000×g for 10 minutes, and analyzed by Western blotting.

[3] = test system: normal mouse liver mitochondria; assay: Cytochrome c and Smac content of isolated mitochondria (Western blotting); type: biochemical
Protocol: as §2

[4] = test system: Akt, Chk1 and Hsp70 in HeLa cells; assay: Hsp90 client protein and Hsp70 levels in treated cells (Western blotting); type: cell-based, human; conditions: overnight incubation, suboptimal concentration
Protocol: In other experiments, chaperone-dependent GST-Chk1 reconstitution was determined as described previously (Arlander et al., “Chaperoning checkpoint kinase 1 (Chk1), an Hsp90 client, with purified chaperones,” J Biol Chem, 281:2989-2998 (2006)). Briefly, each sample contained 0.7 μg of resin-bound GST-Chk1 (residues 1-265), 1 μg of purified human Hsp90α, and the following amounts of other purified chaperone proteins: 10 μg Hsp70, 2 μg Hdj1, 2 μg p50^cdc37, 0.06 units CK2, 2.5 μg p60^Hop. Optical densities due to Chk1-dependent phosphorylation of Cdc25 in the presence and absence of Gamitrinib or 17-AAG were determined and plotted as fold activation above the sample lacking added chaperone proteins. In some experiments, HeLa cells were treated with Gamitrinibs (G1-G4) or 17-AAG (5 μM) for 24 hours, and isolated extracts were analyzed for modulation of Akt or Hsp70 expression, by Western blotting

CypD-TRAP-1 complex = target: T1, CypD-TRAP-1 complex (Homo sapiens, UniProt P30405); assay: Immunoprecipitation of TRAP-1 from Raji mitochondrial extracts; type: binding; conditions: Raji mitochondria immunoprecipitation
T1 construct: TRAP-1 immunoprecipitated from isolated Raji mitochondria was found in a complex with endogenous CypD; found in a complex with endogenous CypD; endogenous in cells; host or cells: Raji cells, isolated mitochondria

[5] = test system: isolated tumor mitochondria; assay: Inner membrane potential of TMRM-loaded tumor mitochondria; type: biochemical
Protocol: The fluorescence intensity after treatment with 2 mM CaCl2 corresponded to a fully depolarized state. Alternatively, H460 cells were labeled with the fluorescent dye JC-1 (Molecular Probes), and analyzed for changes in red/green (F1-2/F1-1) fluorescence ratio after treatment with the various agents, by multiparametric flow cytometry. Cytochrome c content in pellets or supernatants of drug-treated isolated mitochondria was determined by Western blotting.

CC[C@H](C)[C@H](NC(=O)[C@H](CCCCN)NC(=O)[C@@H](NC(=O)[C@H](CCC(N)=O)NC(=O)[C@@H](N)CCCNC(=N)N)[C@@H](C)CC)C(=O)N[C@@H](Cc1c[nH]c2ccccc12)C(=O)N[C@@H](Cc1ccccc1)C(=O)N[C@@H](CCC(N)=O)C(=O)N[C@@H](CC(N)=O)C(=O)N[C@@H](CCCNC(=N)N)C(=O)N[C@@H](CCCNC(=N)N)C(=O)N[C@@H](CCSC)C(=O)N[C@@H](CCCCN)C(=O)N[C@@H](Cc1c[nH]c2ccccc12)C(=O)N[C@@H](CCCCN)C(=O)N[C@@H](CCCCN)C(=O)N[C@@H](CSC1CC(=O)N(CCCC(=O)NCCCNC2=C3C[C@@H](C)C[C@H](OC)[C@H](O)[C@@H](C)/C=C(\C)[C@H](OC(N)=O)[C@@H](OC)/C=C\C=C(/C)C(=O)NC(=CC2=O)C3=O)C1=O)C(N)=O (stereo partly shown) [ANT-GA]
mitochondrial membrane potential [1]: sudden loss of mitochondrial membrane potential
membrane potential of mitochondria [2]: did not affect the membrane potential of normal brain mitochondria, with or without CsA
cytochrome c or Smac release from isolated tumor mitochondria (HeLa cell mitochondria): triggered concentration-dependent release of cytochrome c in isolated tumor mitochondria
cytochrome c or Smac levels of mitochondria [3]: did not affect
degradation of Akt, an Hsp90 client protein [4]: resulted in the degradation of Akt

COC1=C2C[C@@H](C)C[C@H](OC)[C@H](O)[C@@H](C)/C=C(\C)[C@H](OC(N)=O)[C@@H](OC)/C=C\C=C(/C)C(=O)NC(=CC1=O)C2=O [GA, geldanamycin]
mitochondrial membrane potential [1]: did not significantly affect normal or tumor mitochondria membrane potential
membrane potential of mitochondria [2]: did not significantly affect normal or tumor mitochondria membrane potential
cytochrome c or Smac release from isolated tumor mitochondria (HeLa cell mitochondria): had no effect on cytochrome c release
formation of CypD-TRAP-1 complex (CypD-TRAP-1 complex): had no effect
mitochondrial inner membrane potential [5]: did not affect mitochondrial membrane potential
